Assay [1] has as its target recombinant human GPC3 (ACROBiosystems) (human) (UniProt P51654). Nature of the assay: SPR.
Assay [2] concerns the target recombinant cynomolgus GPC3 (ACROBiosystems) (cynomolgus monkey). Nature of the assay: SPR. (Surface plasmon resonance follows binding to a sensor surface in real time, without labels.)

Chains of the proteins cited; added tags and fusions are not shown. Lines headed by an entry give the natural chain unless they say otherwise; changes in a name come on top.
UniProt P51654: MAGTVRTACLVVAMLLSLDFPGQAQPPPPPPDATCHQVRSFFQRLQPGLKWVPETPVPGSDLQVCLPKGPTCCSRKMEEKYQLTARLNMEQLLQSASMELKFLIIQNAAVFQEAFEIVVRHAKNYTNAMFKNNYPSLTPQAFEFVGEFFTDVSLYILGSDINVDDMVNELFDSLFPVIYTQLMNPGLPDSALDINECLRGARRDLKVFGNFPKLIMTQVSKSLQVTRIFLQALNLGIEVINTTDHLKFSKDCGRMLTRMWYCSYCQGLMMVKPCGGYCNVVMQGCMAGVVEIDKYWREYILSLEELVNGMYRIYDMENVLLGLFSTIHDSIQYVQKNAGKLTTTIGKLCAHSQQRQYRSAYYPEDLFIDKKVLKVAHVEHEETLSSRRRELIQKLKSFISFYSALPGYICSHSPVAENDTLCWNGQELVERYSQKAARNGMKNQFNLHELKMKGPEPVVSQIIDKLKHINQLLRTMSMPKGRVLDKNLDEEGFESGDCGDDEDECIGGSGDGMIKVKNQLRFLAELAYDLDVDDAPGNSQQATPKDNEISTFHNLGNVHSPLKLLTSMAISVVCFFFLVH

These are yes or no findings as the source states them, for the method shown. Some entries that bind do so weakly or less than the wild type.

B1: v40208 (H18L6_LC_G34Q mAb) (antibody, human IgG1, kappa, V domains shown)
VH: QVQLVQSGAEVKKPGSSVKVSCKASGYTFTDYEMHWVKQAPGHGLEWIGAIDPETGDTAYNQKFKGKATLTADTSTSTAYMELSSLRSEDTAVYYCTRYFSFAYWGQGTLVTVSS
VL: EIVLTQSPATLSLSPGERATISCRSSQSLRHSNQNTYLQWYQQKPGQAPRLLIYKVSNRFSGVPARFSGSGSGTDFTLTISSLEPEDFAVYFCYQSKHVPYTFGGGTKVEIKR
For B1, the binding entry in assay [1] and in assay [2] was “binds” throughout.

B2: v40209 (H18L6_LC_G34T mAb) (antibody, human IgG1, kappa, V domains shown)
VH: QVQLVQSGAEVKKPGSSVKVSCKASGYTFTDYEMHWVKQAPGHGLEWIGAIDPETGDTAYNQKFKGKATLTADTSTSTAYMELSSLRSEDTAVYYCTRYFSFAYWGQGTLVTVSS
VL: EIVLTQSPATLSLSPGERATISCRSSQSLRHSNTNTYLQWYQQKPGQAPRLLIYKVSNRFSGVPARFSGSGSGTDFTLTISSLEPEDFAVYFCYQSKHVPYTFGGGTKVEIKR
As to B2, the binding result in assay [1] and in assay [2] was “binds” throughout.

The values are drawn from patent US20250295799A1, “ANTIBODY-DRUG CONJUGATES TARGETING GLYPICAN-3 AND METHODS OF USE” (Zymeworks BC Inc., priority 2022, published 2025).
